The list shows a part of the results. Most entries show no effect beyond the scatter of the controls.

Amino acid sequences for entries named in this document (tags omitted). A change or cut given only in a name is not applied to a line headed by its entry.
UniProt O60239: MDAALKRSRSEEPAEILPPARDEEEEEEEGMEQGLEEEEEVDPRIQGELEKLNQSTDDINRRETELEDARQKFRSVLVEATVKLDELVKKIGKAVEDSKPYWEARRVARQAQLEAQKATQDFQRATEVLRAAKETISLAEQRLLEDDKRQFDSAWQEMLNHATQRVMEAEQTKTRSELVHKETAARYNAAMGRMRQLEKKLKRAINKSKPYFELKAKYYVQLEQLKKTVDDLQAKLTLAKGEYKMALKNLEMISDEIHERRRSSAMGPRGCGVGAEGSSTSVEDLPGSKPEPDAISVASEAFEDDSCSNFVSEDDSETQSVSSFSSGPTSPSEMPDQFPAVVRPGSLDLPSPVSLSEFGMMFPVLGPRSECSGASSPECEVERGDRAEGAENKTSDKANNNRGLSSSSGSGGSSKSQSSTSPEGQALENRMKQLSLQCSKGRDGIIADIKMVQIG
UniProt O60488: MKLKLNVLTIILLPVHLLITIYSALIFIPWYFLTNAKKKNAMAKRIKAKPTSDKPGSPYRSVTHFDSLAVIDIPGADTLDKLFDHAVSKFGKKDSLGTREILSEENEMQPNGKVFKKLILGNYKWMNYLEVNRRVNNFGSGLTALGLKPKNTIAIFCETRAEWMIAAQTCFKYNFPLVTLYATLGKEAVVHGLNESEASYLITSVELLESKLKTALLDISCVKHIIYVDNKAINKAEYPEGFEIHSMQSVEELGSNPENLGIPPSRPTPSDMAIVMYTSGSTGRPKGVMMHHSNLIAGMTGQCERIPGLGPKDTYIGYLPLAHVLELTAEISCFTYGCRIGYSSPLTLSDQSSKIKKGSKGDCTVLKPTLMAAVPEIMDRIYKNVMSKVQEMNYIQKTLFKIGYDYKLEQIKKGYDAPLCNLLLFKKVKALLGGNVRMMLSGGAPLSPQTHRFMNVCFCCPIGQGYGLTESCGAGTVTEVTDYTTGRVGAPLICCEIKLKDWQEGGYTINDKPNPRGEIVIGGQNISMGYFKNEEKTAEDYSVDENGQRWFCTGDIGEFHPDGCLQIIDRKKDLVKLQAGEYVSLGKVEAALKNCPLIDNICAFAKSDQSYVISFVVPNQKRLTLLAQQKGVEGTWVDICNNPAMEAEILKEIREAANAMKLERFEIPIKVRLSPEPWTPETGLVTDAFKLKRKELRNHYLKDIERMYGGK
UniProt O60238, whole entry: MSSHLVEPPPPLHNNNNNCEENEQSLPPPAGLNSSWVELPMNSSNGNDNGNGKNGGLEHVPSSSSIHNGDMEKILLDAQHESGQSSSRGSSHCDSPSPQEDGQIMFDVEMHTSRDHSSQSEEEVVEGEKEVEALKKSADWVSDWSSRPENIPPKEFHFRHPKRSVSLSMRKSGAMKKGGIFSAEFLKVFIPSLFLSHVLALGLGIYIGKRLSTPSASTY
UniProt O43896: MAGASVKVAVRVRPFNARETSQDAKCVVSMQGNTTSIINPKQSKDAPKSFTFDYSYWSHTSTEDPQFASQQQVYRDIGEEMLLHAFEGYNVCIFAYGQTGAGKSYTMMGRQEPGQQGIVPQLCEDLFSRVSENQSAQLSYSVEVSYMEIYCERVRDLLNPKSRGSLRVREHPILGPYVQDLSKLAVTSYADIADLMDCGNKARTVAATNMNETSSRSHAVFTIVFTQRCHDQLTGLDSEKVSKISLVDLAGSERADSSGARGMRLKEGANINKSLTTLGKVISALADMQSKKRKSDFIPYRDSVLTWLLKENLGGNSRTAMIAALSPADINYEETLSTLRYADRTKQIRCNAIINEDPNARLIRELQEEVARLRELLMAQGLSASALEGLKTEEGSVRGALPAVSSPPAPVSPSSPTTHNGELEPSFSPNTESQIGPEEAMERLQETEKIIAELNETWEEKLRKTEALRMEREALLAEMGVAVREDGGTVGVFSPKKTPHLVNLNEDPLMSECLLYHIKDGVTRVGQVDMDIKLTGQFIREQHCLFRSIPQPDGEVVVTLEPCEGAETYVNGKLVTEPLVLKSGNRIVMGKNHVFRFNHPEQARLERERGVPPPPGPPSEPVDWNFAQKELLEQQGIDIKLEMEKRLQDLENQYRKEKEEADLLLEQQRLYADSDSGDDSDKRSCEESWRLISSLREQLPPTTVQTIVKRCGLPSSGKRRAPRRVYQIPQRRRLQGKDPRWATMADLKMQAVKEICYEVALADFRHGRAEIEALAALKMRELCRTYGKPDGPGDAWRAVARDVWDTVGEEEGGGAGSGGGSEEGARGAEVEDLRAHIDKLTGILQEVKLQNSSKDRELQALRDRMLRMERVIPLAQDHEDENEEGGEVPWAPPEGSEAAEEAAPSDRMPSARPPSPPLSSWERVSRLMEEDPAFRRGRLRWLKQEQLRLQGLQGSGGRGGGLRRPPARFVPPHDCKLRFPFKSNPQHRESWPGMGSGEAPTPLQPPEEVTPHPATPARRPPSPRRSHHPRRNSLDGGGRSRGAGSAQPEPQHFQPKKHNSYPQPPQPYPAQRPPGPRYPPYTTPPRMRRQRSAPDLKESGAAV
UniProt O75376, whole entry: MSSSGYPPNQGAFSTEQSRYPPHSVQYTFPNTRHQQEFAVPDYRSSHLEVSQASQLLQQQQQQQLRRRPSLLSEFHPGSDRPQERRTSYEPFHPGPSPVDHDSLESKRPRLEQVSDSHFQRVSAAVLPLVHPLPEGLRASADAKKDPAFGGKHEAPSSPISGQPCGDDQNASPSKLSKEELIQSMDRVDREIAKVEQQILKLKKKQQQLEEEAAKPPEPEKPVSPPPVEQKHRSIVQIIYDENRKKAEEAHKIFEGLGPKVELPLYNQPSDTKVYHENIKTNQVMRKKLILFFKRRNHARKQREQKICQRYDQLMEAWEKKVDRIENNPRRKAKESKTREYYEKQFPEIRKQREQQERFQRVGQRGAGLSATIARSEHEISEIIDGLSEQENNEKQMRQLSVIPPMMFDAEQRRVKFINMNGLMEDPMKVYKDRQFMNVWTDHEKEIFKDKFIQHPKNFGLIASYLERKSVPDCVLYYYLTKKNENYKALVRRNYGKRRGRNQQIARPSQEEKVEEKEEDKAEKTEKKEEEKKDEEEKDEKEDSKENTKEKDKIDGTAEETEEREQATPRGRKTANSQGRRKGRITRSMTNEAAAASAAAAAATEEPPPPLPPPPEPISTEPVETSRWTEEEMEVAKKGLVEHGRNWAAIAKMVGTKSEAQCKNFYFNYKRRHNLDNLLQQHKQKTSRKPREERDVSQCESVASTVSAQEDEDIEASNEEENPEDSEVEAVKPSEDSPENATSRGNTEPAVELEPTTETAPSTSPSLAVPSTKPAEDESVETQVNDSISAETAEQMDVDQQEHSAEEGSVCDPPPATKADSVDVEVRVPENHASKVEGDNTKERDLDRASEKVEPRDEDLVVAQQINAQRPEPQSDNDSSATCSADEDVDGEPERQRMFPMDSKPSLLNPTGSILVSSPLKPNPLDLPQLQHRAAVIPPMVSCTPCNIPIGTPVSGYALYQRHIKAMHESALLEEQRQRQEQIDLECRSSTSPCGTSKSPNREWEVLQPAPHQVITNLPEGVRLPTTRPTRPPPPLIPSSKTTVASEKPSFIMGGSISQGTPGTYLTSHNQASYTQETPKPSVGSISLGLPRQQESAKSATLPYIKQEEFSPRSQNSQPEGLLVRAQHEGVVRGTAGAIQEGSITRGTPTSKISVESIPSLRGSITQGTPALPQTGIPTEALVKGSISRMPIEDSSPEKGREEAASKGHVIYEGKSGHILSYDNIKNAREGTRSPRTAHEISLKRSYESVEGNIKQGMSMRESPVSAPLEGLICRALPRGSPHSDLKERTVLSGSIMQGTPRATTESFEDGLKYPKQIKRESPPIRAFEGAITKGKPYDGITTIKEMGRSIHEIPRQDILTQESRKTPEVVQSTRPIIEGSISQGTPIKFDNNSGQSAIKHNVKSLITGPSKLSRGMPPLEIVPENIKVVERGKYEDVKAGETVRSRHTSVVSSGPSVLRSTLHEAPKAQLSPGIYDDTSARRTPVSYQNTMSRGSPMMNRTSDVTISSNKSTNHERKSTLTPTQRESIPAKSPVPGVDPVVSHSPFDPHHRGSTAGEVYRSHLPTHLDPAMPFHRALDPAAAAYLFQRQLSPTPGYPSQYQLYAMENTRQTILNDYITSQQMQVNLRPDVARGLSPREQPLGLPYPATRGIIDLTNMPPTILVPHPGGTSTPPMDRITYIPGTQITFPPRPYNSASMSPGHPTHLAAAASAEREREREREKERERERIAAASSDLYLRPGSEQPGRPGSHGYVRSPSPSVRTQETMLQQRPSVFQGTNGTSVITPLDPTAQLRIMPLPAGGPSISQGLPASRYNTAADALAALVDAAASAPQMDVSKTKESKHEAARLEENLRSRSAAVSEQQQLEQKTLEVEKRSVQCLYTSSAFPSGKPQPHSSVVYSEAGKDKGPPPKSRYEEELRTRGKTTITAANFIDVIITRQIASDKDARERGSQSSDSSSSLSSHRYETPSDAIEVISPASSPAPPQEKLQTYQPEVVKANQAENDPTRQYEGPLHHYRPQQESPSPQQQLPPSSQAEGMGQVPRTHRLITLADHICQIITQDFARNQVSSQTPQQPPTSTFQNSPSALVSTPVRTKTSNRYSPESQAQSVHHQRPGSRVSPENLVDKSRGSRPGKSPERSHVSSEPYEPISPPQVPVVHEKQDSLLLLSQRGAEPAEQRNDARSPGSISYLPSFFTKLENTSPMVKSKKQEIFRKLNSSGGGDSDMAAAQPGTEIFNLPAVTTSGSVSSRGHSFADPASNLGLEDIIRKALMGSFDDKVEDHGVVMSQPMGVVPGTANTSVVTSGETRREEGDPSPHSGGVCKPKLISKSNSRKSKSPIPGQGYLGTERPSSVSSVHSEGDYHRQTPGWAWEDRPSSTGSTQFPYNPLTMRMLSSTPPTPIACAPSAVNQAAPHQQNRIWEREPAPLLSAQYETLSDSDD
UniProt O43318: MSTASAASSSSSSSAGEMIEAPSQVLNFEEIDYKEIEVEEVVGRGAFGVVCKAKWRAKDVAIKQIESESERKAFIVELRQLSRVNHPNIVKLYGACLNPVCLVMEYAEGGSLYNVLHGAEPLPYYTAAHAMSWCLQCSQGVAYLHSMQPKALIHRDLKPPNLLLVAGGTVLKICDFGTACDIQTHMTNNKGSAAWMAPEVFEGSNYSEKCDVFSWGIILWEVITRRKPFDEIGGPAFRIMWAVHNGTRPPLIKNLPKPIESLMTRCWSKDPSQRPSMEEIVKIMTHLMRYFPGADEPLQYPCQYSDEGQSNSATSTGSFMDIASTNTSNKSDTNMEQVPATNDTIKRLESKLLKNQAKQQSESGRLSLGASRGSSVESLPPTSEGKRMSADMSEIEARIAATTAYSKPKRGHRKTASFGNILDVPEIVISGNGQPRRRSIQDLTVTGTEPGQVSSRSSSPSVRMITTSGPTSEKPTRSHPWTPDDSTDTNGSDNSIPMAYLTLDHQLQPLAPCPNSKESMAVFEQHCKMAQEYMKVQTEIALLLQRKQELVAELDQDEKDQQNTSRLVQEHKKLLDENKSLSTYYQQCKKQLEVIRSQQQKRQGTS
UniProt O43299: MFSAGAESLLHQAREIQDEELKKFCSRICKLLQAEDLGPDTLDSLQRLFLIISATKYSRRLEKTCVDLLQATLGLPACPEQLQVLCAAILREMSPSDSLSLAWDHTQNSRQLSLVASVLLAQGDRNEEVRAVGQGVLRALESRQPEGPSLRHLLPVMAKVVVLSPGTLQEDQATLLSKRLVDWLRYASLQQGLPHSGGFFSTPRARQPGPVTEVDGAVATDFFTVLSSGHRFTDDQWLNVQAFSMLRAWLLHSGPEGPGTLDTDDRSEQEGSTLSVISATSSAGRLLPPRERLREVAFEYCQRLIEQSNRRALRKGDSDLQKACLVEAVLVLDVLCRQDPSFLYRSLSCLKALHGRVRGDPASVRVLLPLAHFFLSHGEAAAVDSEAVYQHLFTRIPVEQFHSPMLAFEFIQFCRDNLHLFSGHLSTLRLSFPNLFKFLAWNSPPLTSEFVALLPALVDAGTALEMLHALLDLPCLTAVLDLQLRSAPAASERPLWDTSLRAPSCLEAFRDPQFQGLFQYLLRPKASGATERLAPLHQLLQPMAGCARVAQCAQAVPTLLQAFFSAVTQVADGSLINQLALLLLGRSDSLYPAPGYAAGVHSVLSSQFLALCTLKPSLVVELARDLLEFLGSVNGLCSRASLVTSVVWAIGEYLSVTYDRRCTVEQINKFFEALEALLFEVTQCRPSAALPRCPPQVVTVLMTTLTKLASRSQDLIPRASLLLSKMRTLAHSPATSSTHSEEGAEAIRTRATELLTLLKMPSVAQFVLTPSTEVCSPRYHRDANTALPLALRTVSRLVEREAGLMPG
UniProt O60499: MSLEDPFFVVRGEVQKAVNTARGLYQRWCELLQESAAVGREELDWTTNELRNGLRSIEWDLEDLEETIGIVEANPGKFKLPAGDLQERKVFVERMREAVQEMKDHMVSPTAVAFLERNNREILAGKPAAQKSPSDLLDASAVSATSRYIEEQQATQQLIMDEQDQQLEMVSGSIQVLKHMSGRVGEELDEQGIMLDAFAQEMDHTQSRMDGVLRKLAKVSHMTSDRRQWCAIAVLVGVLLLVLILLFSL

Compound in the assay: Cc1nc(Nc2ncc(C(=O)Nc3c(C)cccc3Cl)s2)cc(N2CCN(CCO)CC2)n1 [dasatinib]
Description: log2 fold change of tryptic peptide abundance, ligand vs vehicle (limited proteolysis) (log2 ratio); higher = more trypsin-susceptible (destabilized). The note with it: ligand concentration: 5 uM; sample: K562 cleared lysate.
Consider “PHF2 (peptide sequence: GSSLAAHGAR, peptide start residue: 822) (UniProt O75151)”, for which the log2 fold change was -0.102. As for “SH3BP5 (peptide sequence: VMEAEQTK, peptide start residue: 166) (UniProt O60239)”, the figure is -0.515. On to “ACSL4 (peptide sequence: VGAPLICCEIK, peptide start residue: 488) (UniProt O60488)”, for which the log2 fold change was 0.564.

In the case of “TPST2 (peptide sequence: STDQVIKPVNLEALSK, peptide start residue: 285) (UniProt O60704)”, the log2 fold change was -0.0101. Regarding “TPD52L2 (peptide sequence: AELTKVEEEIVTLR, peptide start residue: 51) (UniProt O43399)”, the log2 fold change was 0.194. Turning to “UniProt O60613 (peptide sequence: FPQVQAFVR, peptide start residue: 101)”, the log2 fold change stood at 0.134. Take “TIMM44 (peptide sequence: YKTIESETVR, peptide start residue: 104) (UniProt O43615)”: the log2 fold change is -0.208. In the case of “UniProt O43709 (peptide sequence: ESVFTNER, peptide start residue: 227)”, the log2 fold change worked out at 0.12. Regarding “BNIP3L (peptide sequence: DHSSQSEEEVVEGEKEVEALKK, peptide start residue: 115) (UniProt O60238)”, the log2 fold change was determined as 0.345.

On to “TBX1 (peptide sequence: GFRDCDPEDWPR, peptide start residue: 294) (UniProt O43435)”, for which the log2 fold change was -0.0845. For the target “RBFOX2 (peptide sequence: MVTPYANGWK, peptide start residue: 205) (UniProt O43251)”, the log2 fold change is -0.0445. Take “UniProt O60232 (peptide sequence: PAPQPPVPRPEHCEGAAAGLK, peptide start residue: 113)”: the log2 fold change was found to be 0.072. Consider “SSNA1 (peptide sequence: CIEELCQKR, peptide start residue: 18) (UniProt O43805)”, for which the log2 fold change came to 0.653. As to “RNF40 (peptide sequence: AKAEVDELR, peptide start residue: 696) (UniProt O75150)”, the log2 fold change stood at 0.149. On to “BUB3 (peptide sequence: VLVWDLR, peptide start residue: 159) (UniProt O43684)”, for which the log2 fold change is -0.155. In the case of “CCDC22 (peptide sequence: MEEADRILIHSLR, peptide start residue: 1) (UniProt O60826)” it was 0.596; in that of “KIF1C (peptide sequence: AHIDKLTGILQEVK, peptide start residue: 835) (UniProt O43896)”, -0.396. In the case of “WIPF1 (peptide sequence: NALLSDISK, peptide start residue: 34) (UniProt O43516)” it was -0.366; in that of “STX6 (peptide sequence: KFNLDATELSIRK, peptide start residue: 77) (UniProt O43752)”, 0.293; in that of “NCOR1 (peptide sequence: QDILTQESR, peptide start residue: 1357) (UniProt O75376)”, 0.17. Consider “KIAA0556 (peptide sequence: VLQAVESDSAHLGR, peptide start residue: 437) (UniProt O60303)”, for which the log2 fold change was -0.217. In the case of “TULP3 (peptide sequence: LSPSGDSVFHEEMMK, peptide start residue: 8) (UniProt O75386)”, the log2 fold change came to 0.204.

“UniProt O43318 (peptide sequence: KQLEVIR, peptide start residue: 590)”: the log2 fold change amounted to 0.289.

With “NOL3 (peptide sequence: GEAACQELLR, peptide start residue: 69) (UniProt O60936)”, the log2 fold change came to 0.0762.

For the target “MAGEC1 (peptide sequence: SEGEDSSDPLQRPPEGK, peptide start residue: 58) (UniProt O60732)”, the log2 fold change was -0.172. For the target “UniProt O43296 (peptide sequence: HFSIHTGEKPYECVECGK, peptide start residue: 466)”, the log2 fold change is -0.0295. As for “UniProt O43299 (peptide sequence: LREVAFEYCQR, peptide start residue: 293)”, the figure is 0.398; as for “STX10 (peptide sequence: EILAGKPAAQK, peptide start residue: 121) (UniProt O60499)”, -0.198. As to “NME2P1 (peptide sequence: QHYIDLKDRPFFPGLVK, peptide start residue: 50) (UniProt O60361)”, the log2 fold change is -0.288.

For the origin of these results see the supplement of paper PMC12819154, “High-throughput peptide-centric local stability assay extends protein–ligand identification to membrane proteins, tissues and bacteria” (Nature Structural & Molecular Biology, 2025).
